These are yes or no findings as the source states them, for the method shown. Binding seen in cells or lysates may run through a third protein. Binding can be weak; no strength is given.

Chains of the proteins cited; added tags and fusions are not shown. Lines headed by an entry give the natural chain unless they say otherwise; changes in a name come on top.
UniProt P45444: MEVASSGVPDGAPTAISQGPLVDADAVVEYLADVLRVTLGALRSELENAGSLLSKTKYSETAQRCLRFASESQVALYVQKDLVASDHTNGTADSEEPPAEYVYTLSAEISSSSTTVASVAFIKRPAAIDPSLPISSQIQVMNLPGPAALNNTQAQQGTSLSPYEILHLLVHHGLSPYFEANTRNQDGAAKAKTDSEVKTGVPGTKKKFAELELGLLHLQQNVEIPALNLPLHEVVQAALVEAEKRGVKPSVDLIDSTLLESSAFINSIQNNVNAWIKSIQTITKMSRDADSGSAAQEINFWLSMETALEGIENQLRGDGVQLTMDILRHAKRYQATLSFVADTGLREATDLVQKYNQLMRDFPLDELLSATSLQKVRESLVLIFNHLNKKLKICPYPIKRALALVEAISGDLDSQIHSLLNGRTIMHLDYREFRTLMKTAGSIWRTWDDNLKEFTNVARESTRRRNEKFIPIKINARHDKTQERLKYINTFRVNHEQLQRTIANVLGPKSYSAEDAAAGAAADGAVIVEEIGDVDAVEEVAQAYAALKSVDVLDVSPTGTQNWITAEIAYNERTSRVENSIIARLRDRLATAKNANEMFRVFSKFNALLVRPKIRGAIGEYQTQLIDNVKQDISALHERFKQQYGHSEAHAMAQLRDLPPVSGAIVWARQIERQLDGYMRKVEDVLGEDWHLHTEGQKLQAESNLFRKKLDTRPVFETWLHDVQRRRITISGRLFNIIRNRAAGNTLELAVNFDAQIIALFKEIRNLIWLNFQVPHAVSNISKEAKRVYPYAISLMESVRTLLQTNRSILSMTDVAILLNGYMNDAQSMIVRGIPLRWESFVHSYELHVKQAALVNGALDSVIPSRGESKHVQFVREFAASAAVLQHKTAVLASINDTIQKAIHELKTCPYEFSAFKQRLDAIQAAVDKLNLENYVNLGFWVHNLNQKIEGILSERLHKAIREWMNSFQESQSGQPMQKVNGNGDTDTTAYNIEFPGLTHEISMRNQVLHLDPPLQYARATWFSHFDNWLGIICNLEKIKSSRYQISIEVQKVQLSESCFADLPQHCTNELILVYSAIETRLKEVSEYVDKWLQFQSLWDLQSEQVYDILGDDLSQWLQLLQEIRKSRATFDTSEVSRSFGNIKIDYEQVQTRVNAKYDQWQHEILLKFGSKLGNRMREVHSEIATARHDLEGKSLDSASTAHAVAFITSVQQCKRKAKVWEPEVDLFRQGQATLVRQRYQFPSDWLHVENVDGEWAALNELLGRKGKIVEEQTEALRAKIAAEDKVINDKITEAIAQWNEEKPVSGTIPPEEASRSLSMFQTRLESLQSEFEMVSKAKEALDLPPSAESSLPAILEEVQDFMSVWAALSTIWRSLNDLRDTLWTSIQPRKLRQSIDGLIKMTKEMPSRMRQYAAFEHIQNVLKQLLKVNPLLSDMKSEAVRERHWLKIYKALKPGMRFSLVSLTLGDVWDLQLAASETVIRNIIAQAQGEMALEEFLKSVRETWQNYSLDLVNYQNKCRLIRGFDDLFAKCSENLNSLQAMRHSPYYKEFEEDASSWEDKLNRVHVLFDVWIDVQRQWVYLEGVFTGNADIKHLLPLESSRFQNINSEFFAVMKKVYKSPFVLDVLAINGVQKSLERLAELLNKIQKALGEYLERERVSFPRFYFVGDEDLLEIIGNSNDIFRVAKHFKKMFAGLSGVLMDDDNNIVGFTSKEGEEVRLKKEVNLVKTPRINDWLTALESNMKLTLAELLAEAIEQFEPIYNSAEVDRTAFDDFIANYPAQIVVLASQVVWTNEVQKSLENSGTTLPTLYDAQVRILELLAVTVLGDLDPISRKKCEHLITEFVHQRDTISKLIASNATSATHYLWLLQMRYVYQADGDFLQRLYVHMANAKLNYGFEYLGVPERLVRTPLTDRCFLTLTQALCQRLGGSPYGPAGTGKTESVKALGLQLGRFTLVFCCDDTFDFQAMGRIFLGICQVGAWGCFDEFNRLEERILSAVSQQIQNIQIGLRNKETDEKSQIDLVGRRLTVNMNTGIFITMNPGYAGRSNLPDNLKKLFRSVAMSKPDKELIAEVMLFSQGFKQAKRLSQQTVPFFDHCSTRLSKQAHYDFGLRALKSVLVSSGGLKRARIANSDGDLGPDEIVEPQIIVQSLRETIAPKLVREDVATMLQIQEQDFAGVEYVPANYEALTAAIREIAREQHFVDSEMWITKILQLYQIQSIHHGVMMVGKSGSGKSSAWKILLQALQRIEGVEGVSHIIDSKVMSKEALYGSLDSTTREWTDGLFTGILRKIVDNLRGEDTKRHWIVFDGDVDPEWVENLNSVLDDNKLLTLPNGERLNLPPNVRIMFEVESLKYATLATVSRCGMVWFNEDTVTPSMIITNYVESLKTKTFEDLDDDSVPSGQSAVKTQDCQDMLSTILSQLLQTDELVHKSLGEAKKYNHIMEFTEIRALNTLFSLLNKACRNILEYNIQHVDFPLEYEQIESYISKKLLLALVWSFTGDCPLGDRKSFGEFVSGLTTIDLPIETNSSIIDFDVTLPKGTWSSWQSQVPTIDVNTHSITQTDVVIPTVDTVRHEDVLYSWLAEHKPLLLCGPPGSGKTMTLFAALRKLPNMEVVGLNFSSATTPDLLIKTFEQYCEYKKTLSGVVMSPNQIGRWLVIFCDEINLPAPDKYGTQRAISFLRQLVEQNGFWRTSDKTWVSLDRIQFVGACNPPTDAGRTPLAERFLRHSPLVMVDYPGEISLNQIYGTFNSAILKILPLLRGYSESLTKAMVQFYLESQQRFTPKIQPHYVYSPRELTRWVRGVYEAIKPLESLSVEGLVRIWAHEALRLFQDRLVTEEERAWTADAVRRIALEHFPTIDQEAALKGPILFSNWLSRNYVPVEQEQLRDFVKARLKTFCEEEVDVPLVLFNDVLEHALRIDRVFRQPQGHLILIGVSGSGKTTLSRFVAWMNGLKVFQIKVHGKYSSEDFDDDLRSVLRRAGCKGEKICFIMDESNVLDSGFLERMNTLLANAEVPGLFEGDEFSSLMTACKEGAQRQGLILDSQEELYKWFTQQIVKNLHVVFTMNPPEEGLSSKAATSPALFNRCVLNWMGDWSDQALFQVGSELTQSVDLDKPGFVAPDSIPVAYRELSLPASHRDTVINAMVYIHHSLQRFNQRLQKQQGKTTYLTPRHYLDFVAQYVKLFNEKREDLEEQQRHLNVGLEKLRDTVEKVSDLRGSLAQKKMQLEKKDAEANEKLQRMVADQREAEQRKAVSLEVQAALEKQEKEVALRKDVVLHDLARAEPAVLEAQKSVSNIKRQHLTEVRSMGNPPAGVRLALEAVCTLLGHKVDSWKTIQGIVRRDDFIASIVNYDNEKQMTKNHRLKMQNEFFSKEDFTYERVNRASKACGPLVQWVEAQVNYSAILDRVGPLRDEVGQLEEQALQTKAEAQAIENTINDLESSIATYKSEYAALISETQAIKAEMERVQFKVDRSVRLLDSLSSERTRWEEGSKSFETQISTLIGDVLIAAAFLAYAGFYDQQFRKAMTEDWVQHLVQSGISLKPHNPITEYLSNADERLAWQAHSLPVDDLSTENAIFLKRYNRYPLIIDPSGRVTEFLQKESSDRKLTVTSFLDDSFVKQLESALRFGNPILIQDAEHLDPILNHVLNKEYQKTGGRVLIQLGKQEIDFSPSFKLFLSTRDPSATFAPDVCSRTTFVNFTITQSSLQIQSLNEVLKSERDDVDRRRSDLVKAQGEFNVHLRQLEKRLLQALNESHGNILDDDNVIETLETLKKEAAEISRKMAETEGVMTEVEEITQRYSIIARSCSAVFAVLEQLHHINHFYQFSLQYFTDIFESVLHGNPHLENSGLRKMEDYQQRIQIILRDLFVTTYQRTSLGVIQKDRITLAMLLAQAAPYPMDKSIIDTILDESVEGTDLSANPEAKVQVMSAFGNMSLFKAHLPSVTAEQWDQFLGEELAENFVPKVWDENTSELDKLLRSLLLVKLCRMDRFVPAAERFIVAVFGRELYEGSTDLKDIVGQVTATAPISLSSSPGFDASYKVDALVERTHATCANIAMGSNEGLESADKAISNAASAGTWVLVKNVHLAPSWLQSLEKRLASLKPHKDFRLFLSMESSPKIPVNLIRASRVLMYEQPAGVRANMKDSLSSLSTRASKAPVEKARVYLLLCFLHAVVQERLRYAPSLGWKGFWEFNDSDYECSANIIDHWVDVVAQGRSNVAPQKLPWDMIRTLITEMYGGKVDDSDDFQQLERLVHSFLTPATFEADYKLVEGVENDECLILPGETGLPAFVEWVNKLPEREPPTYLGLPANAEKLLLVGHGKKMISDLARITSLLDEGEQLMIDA
UniProt Q8J0T2: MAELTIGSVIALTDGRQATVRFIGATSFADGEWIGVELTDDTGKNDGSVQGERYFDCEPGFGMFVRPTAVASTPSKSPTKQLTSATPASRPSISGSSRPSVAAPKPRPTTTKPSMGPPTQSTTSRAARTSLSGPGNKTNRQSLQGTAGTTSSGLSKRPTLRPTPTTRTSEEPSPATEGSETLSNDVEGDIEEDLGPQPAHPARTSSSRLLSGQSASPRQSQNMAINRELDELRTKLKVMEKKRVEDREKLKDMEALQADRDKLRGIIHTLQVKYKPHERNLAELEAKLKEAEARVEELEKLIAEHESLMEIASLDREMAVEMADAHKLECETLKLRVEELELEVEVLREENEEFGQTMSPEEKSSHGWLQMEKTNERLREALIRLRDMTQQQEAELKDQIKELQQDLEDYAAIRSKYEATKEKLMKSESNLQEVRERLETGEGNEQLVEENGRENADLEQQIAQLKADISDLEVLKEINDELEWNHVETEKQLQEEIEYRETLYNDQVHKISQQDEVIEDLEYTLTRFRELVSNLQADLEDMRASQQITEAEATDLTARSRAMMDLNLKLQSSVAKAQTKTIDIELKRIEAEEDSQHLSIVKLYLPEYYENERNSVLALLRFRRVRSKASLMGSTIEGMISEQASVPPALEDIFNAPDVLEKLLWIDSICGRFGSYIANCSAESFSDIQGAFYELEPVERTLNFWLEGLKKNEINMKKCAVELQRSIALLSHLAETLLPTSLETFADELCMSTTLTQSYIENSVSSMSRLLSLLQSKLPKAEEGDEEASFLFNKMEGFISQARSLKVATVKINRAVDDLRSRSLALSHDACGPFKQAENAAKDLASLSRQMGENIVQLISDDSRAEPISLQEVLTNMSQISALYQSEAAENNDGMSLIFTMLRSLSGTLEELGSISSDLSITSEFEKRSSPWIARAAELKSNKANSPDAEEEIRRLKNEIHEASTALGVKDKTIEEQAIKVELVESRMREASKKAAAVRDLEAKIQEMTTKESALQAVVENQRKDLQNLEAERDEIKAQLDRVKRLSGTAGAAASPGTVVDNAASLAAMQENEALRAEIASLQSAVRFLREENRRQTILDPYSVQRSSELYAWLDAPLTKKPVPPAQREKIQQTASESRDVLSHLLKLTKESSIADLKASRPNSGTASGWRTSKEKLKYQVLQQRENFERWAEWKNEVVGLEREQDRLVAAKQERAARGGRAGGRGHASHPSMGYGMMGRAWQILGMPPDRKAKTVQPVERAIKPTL

Test [1] deals with GFP-dynein HC (NudA) with the nudA R1602E phi-opening mutation (A. nidulans) (UniProt P45444). In words: co-IP.
Test [2] addresses GFP-dynein HC (NudA) (A. nidulans) (UniProt P45444). The test is described as follows: co-IP.

dynactin p150 (from UniProt Q8J0T2): the binding entry in test [1] and in test [2] was “binds” throughout.

The values are drawn from doi:10.1101/683995.
